# Some of the results follow.
# Legend:
# Assay in all cases: glycan array binding signal (z-score within array); higher = stronger binding
# Settings in all cases: glycan notation: IUPAC condensed, linker removed
# [1] = target: Fuc(a1-2)Gal
# In short: (§1)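 Negative Z-scores can be read as non-binding. The Z-score is calculated within each array and then averaged across arrays of one protein sequence at different concentrations or buffers and across linkers. Arrays, 3228 in all, were curated from the Consortium for Functional Glycomics database and kept only where the protein sequence was available.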
# [2] = target: Fuc(a1-2)Gal(b1-3)GalNAc
# In short: as §1
# [3] = target: Fuc(a1-2)Gal(b1-3)GalNAc(a1-3)[Fuc(a1-2)]Gal(b1-4)Glc
# In short: as §1
# [4] = target: Fuc(a1-2)Gal(b1-3)GalNAc(a1-3)[Fuc(a1-2)]Gal(b1-4)GlcNAc
# In short: as §1
# [5] = target: Fuc(a1-2)Gal(b1-3)GalNAc(b1-3)Gal
# In short: as §1
# [6] = target: Fuc(a1-2)Gal(b1-3)GalNAc(b1-3)Gal(a1-4)Gal(b1-4)Glc
# In short: as §1
# [7] = target: Fuc(a1-2)Gal(b1-3)GalNAc(b1-4)[Neu5Ac(a2-3)]Gal(b1-4)Glc
# In short: as §1
# [8] = target: Fuc(a1-2)Gal(b1-3)GlcNAc
# In short: as §1
# [9] = target: Fuc(a1-2)Gal(b1-3)GlcNAc(b1-2)Man(a1-3)[Fuc(a1-2)Gal(b1-3)GlcNAc(b1-2)Man(a1-6)]Man(b1-4)GlcNAc(b1-4)GlcNAc
# In short: as §1
# [10] = target: Fuc(a1-2)Gal(b1-3)GlcNAc(b1-2)Man(a1-3)[Fuc(a1-2)Gal(b1-3)GlcNAc(b1-2)Man(a1-6)]Man(b1-4)GlcNAc(b1-4)[Fuc(a1-6)]GlcNAc
# In short: as §1
# [11] = target: Fuc(a1-2)Gal(b1-3)GlcNAc(b1-3)Gal(b1-4)Glc
# In short: as §1
# [12] = target: Fuc(a1-2)Gal(b1-3)GlcNAc(b1-3)GalNAc
# In short: as §1
# [13] = target: Fuc(a1-2)Gal(b1-3)GlcNAc(b1-3)[Fuc(a1-2)Gal(b1-3)GlcNAc(b1-6)]GalNAc
# In short: as §1
# [14] = target: Fuc(a1-2)Gal(b1-3)GlcNAc(b1-3)[Gal(b1-4)GlcNAc(b1-6)]Gal(b1-4)Glc
# In short: as §1
# [15] = target: Fuc(a1-2)Gal(b1-3)GlcNAc(b1-3)[Neu5Ac(a2-6)Gal(b1-4)GlcNAc(b1-6)]Gal(b1-4)Glc
# In short: as §1
# [16] = target: Fuc(a1-2)Gal(b1-3)GlcNAc6S
# In short: as §1
# [17] = target: Fuc(a1-2)Gal(b1-3)[Fuc(a1-4)]GlcNAc
# In short: as §1
# [18] = target: Fuc(a1-2)Gal(b1-3)[Fuc(a1-4)]GlcNAc(b1-2)Man(a1-3)[Fuc(a1-2)Gal(b1-3)[Fuc(a1-4)]GlcNAc(b1-2)Man(a1-3)]Man(b1-4)GlcNAc(b1-4)GlcNAc
# In short: as §1
# [19] = target: Fuc(a1-2)Gal(b1-3)[Fuc(a1-4)]GlcNAc(b1-2)Man(a1-3)[Fuc(a1-2)Gal(b1-3)[Fuc(a1-4)]GlcNAc(b1-2)Man(a1-6)]Man(b1-4)GlcNAc(b1-4)[Fuc(a1-6)]GlcNAc(b1-4)[Fuc(a1-6)]GlcNAc
# In short: as §1
# [20] = target: Fuc(a1-2)Gal(b1-3)[Fuc(a1-4)]GlcNAc(b1-3)[Fuc(a1-3)[Gal(b1-4)]GlcNAc(b1-6)]Gal(b1-4)Glc
# In short: as §1
# [21] = target: Fuc(a1-2)Gal(b1-3)[Fuc(a1-4)]GlcNAc(b1-3)[Gal(b1-4)GlcNAc(b1-6)]Gal(b1-4)Glc
# In short: as §1
# [22] = target: Fuc(a1-2)Gal(b1-4)Glc
# In short: as §1
# [23] = target: Fuc(a1-2)Gal(b1-4)Glc6S
# In short: as §1
# [24] = target: Fuc(a1-2)Gal(b1-4)GlcNAc
# In short: as §1
# [25] = target: Fuc(a1-2)Gal(b1-4)GlcNAc(b1-2)Man
# In short: as §1
# [26] = target: Fuc(a1-2)Gal(b1-4)GlcNAc(b1-2)Man(a1-3)[Fuc(a1-2)Gal(b1-4)GlcNAc(b1-2)Man(a1-6)]Man(b1-4)GlcNAc(b1-4)GlcNAc
# In short: as §1
# [27] = target: Fuc(a1-2)Gal(b1-4)GlcNAc(b1-2)Man(a1-3)[Fuc(a1-2)Gal(b1-4)GlcNAc(b1-2)Man(a1-6)]Man(b1-4)GlcNAc(b1-4)[Fuc(a1-6)]GlcNAc
# In short: as §1
# [28] = target: Fuc(a1-2)Gal(b1-4)GlcNAc(b1-2)[Fuc(a1-2)Gal(b1-4)GlcNAc(b1-4)]Man(a1-3)[Fuc(a1-2)Gal(b1-4)GlcNAc(b1-2)Man(a1-6)]Man(b1-4)GlcNAc(b1-4)GlcNAc
# In short: as §1
# [29] = target: Fuc(a1-2)Gal(b1-4)GlcNAc(b1-3)Gal(b1-4)GlcNAc
# In short: as §1
# [30] = target: Fuc(a1-2)Gal(b1-4)GlcNAc(b1-3)Gal(b1-4)GlcNAc(b1-2)Man(a1-3)[Fuc(a1-2)Gal(b1-4)GlcNAc(b1-3)Gal(b1-4)GlcNAc(b1-2)Man(a1-6)]Man(b1-4)GlcNAc(b1-4)GlcNAc
# In short: as §1
binder,measurement,setting,value
Pwp7 (Candida glabrata) (protein) MGSSHHHHHHSSGLVPRGSHMASKNPVDFPNLCQYPNLDGAVAGFDTEIYNADPSILINFSLWPILQFPKEWHKTIGRAITTQTNFKLPASDTTLFGVSIPTQNILIEFRGYFIPPKSGTYTFALYLTDDGSAMFLGNDAAFPCGNITSWSNPTNDQVSVSDYDPKKKTLTVYMVAGVAYPLRIAYYNREKGGSLTASFVDPDGLTHSDWNGYIWTLPSCDNCKYS,glycan array binding signal (z-score),[1],-0.511
same,glycan array binding signal (z-score),[2],-0.714
same,glycan array binding signal (z-score),[3],-0.521
same,glycan array binding signal (z-score),[4],-0.618
same,glycan array binding signal (z-score),[5],-0.017
same,glycan array binding signal (z-score),[6],0.134
same,glycan array binding signal (z-score),[7],0.482
same,glycan array binding signal (z-score),[8],-1.06
same,glycan array binding signal (z-score),[9],1.13
same,glycan array binding signal (z-score),[10],-0.26
same,glycan array binding signal (z-score),[11],-0.724
same,glycan array binding signal (z-score),[12],-0.404
same,glycan array binding signal (z-score),[13],-0.113
same,glycan array binding signal (z-score),[14],0.936
same,glycan array binding signal (z-score),[15],-0.602
same,glycan array binding signal (z-score),[16],-0.515
same,glycan array binding signal (z-score),[17],-0.614
same,glycan array binding signal (z-score),[18],0.089
same,glycan array binding signal (z-score),[19],0.873
same,glycan array binding signal (z-score),[20],-0.54
same,glycan array binding signal (z-score),[21],-0.297
same,glycan array binding signal (z-score),[22],-0.416
same,glycan array binding signal (z-score),[23],-0.939
same,glycan array binding signal (z-score),[24],-1.12
same,glycan array binding signal (z-score),[25],0.294
same,glycan array binding signal (z-score),[26],0.251
same,glycan array binding signal (z-score),[27],0.204
same,glycan array binding signal (z-score),[28],0.006
same,glycan array binding signal (z-score),[29],-0.579
same,glycan array binding signal (z-score),[30],0.002

# 2 consecutive entries out of the list so far, for reference:
binder,measurement,setting,value
Pwp7 (Candida glabrata) (protein) MGSSHHHHHHSSGLVPRGSHMASKNPVDFPNLCQYPNLDGAVAGFDTEIYNADPSILINFSLWPILQFPKEWHKTIGRAITTQTNFKLPASDTTLFGVSIPTQNILIEFRGYFIPPKSGTYTFALYLTDDGSAMFLGNDAAFPCGNITSWSNPTNDQVSVSDYDPKKKTLTVYMVAGVAYPLRIAYYNREKGGSLTASFVDPDGLTHSDWNGYIWTLPSCDNCKYS,glycan array binding signal (z-score),[23],-0.939
same,glycan array binding signal (z-score),[24],-1.12

# Source: the supplement of paper PMC8728848
